According to patent publication US20140148501, “DNA APTAMERS FOR PROMOTING REMYELINATION” (MAYO FOUNDATION FOR MEDICAL EDUCATION AND RESEARCH, published 2014):

Test system: Crude myelin suspension (protein and lipid mixture) (Mus musculus)
Experiment: pull-down
Details: centrifugal sedimentation, PBS, Mg, 37 C 3 h, protein in an extract, label: 5'-fluorescein, single-stranded DNA

| Sequence | binding result | binding result (crude mixture, no affinity estimate) |
| --- | --- | --- |
| AAAGAACAAAAAGGATAAAGGGGGAGACGGGGGGAACATGGGG [3060] | no binding |  |
| GGGTCGGCGGGTGGGGTGGGAGGTGGTCTTGTCTCTGGGT [3064] |  | binds |
| TTTTTTTTTTTTTTTTTTTTTTTTTTTTTTTTTTTTTTTT [3202 (dT40)] | no binding |  |

Construct, isoform or probe ends are uncertain for at least one entry. Where cells or extracts were used, other partners may take part. Negatives hold for the conditions tested.
